{
  "source": "PubChem BioAssay AID1508600",
  "about": "(Functional Genomics Laboratory (NCATS/FGL), 2020)",
  "note": "Screen size: about 53,000 sequences; about 3,700 (7%) were called active.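 How the source made its calls: active means gene knockdowns whose robust z-score for IL-1 alpha signal is at least 2 or at most -2, so actives lie on both sides; inactive means the rest.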 The list shows a part of the results.",
  "data": [
    {"assay": "Components of the Cytosolic LPS Sensing Pathway: Gene Identification via Genome-wide siRNA Screen;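 further: robust z of the log signal after scaling to non-targeting control siRNA wells of the plate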", "conditions": "RAW264.7 macrophages, IL-1a HTRF, actives lie on both sides, screened at 100 nM (by protocol), cells primed 5 h with Pam3CSK4 first", "in_short": "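Cells (RAW264.7, 1×10^4 per well) were transfected with siRNA at 100 nM and cultured 48h at 37 degrees C. Pam3CSK4 was added for 5 hours; LipidA transfection followed for 24 hour. IL-1a was then measured by HTRF.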", "values": [
      {"sequence": "GCUAGAGUAGCUUUGGGCATT against Glra3", "z-score": "inactive: 1.37"},
      {"sequence": "GCUACAUCUCAGAAAUCGGTT against Taf8", "z-score": "inactive: -1.28"},
      {"sequence": "GGAAGCUACAUGCUGUUCCTT against Anln", "z-score": "inactive: 0.737"},
      {"sequence": "GCUUUAUAGGAACCUAAACTT against Sh3tc2", "z-score": "inactive: 1.37"},
      {"sequence": "GGAUCAACUUACUUGUGGCTT against Tmem168", "z-score": "inactive: -0.84"},
      {"sequence": "CCUAACUAUUGUAGUAGCATT against Thrsp", "z-score": "inactive: 0.409"},
      {"sequence": "GCCACCAAGUACUUUGGUUTT against Vmn1r76", "z-score": "inactive: 1.34"},
      {"sequence": "GGAGAAAAACAAAGAACACTT against Aif1", "z-score": "inactive: -0.342"},
      {"sequence": "GGAGCAAUUAAAGGUGUCATT against Fpr-rs3", "z-score": "inactive: -0.159"},
      {"sequence": "GGUUUGAAUUAGGUUAGAGTT against Kank1", "z-score": "inactive: -1.7"},
      {"sequence": "GCUUAACACAAAAUAAGGCTT against Tph2", "z-score": "inactive: 0.737"},
      {"sequence": "GGGACUAUAAGGAACCAGGTT against Fmo3", "z-score": "inactive: -0.35"},
      {"sequence": "GGUCAUAGUUUCUGAAUGATT against Cdx4", "z-score": "inactive: -0.315"},
      {"sequence": "GGCAGAGCCAGGAUGUCUUTT against Msmb", "z-score": "inactive: -1.2"},
      {"sequence": "GGAGAAUUAACUGUUCCUCTT against Kcnmb2", "z-score": "active: 2.23"},
      {"sequence": "GGCCCUGUGUCAAAUCAGUTT against Zfand6", "z-score": "active: 2.1"},
      {"sequence": "AGGUCACCAAACGUGAUGATT against Rc3h1", "z-score": "inactive: 0.0137"},
      {"sequence": "GGAGCGCGUGAAACUGUCUTT against Fbxw4", "z-score": "inactive: -0.752"},
      {"sequence": "GGUGCACCUGAUGUACAAGTT against Trim25", "z-score": "inactive: 0.939"},
      {"sequence": "CCACCUGUGCUACCACUUATT against Rexo4", "z-score": "active: -2.34"},
      {"sequence": "GCCUUCCAUACUUCACUACTT against Rtp2", "z-score": "inactive: -0.49"},
      {"sequence": "GGUUGAUGCCAUGAAGUCCTT against Acyp2", "z-score": "inactive: -1.22"},
      {"sequence": "GGACAAAGAUGAAAUCCGATT against Btbd3", "z-score": "inactive: -0.033"},
      {"sequence": "GGGACCUAUGCUGUUUCCUTT against Ccdc85a", "z-score": "inactive: 0.248"},
      {"sequence": "GGAUGUUCCAUAUUAUACCTT against Adamdec1", "z-score": "inactive: 1.06"},
      {"sequence": "GCUUACAUCCAAGCCGUCUTT against Prss41", "z-score": "inactive: 0.283"},
      {"sequence": "GGAAGAGCAGCAGAUGAAATT against Prodh", "z-score": "inactive: -1.62"},
      {"sequence": "GGAAAUGAUCGAAAUGGCCTT against Pou2f3", "z-score": "inactive: -0.89"},
      {"sequence": "CCUAUACACCCAUUUUUAATT against Arl2bp", "z-score": "inactive: 0.163"},
      {"sequence": "GGGUCUUUAAACUGAAAGATT against Sh3pxd2a", "z-score": "inactive: 0.0777"},
      {"sequence": "GCCAAAUAAUCUGAAAGCCTT against Rpl28", "z-score": "inactive: 0.309"},
      {"sequence": "GGAAGUUUCUCUGAGAGCUTT against Krt86", "z-score": "inactive: -0.0591"},
      {"sequence": "GGAUCAGUGGACAAAAUAUTT against Uqcrb", "z-score": "inactive: -1.62"},
      {"sequence": "CGGUGCUCAUGUUUAACUGTT against Cyb561a3", "z-score": "inactive: -0.559"},
      {"sequence": "GGAAACAGUAGAAGAUGAGTT against Fam220a", "z-score": "inactive: 0.151"},
      {"sequence": "GGAAUGCAUCGAGUGAAAATT against Pgap4", "z-score": "inactive: -0.658"},
      {"sequence": "CCAAGCCUUAAUAAGUCAATT against Ccp110", "z-score": "active: -2.52"},
      {"sequence": "GGCAUUUCGUGGAUCACCGTT against Mtg2", "z-score": "inactive: -1.56"},
      {"sequence": "GGAAGCUCUUCAACUCUACTT against Vps4b", "z-score": "active: 2.06"},
      {"sequence": "UUCUGUGCAUCCUGUCCUATT against Kcnk15", "z-score": "inactive: 0.554"},
      {"sequence": "CCCAUUGGAACUGCUGUAATT against Metrnl", "z-score": "inactive: 0.932"},
      {"sequence": "GGUAUUGAAAAAGCUUUUCTT against Rragc", "z-score": "inactive: 1.29"},
      {"sequence": "GCAUUCUCAAGAGAUGCCCTT against Alk", "z-score": "inactive: -1.19"},
      {"sequence": "GGACUAGUUGUGACUUAAGTT against Aldh1a1", "z-score": "inactive: -0.495"},
      {"sequence": "GCAGUAGGUUGCACACAUATT against Art1", "z-score": "active: -2.11"},
      {"sequence": "CCUGUCGUUCCCUUAAAUATT against Asnsd1", "z-score": "inactive: 0.315"},
      {"sequence": "GGUUGUCUGACACUGUACATT against Nabp2", "z-score": "inactive: 0.815"},
      {"sequence": "GGCUCCUGGGCAAUAUGAUTT against Hbb-b1", "z-score": "inactive: 0.33"},
      {"sequence": "CGCCAGAUGGACUUCAUCATT against Slc6a8", "z-score": "inactive: 1.83"},
      {"sequence": "GCCGCUAUCGUCUUUAUCATT against Ptk7", "z-score": "inactive: 0.00632"},
      {"sequence": "GGAACUUAUCCGGUUUGAUTT against Limk1", "z-score": "inactive: 1.58"},
      {"sequence": "GGAAUAUUGCUAAACACAATT against 1700025G04Rik", "z-score": "inactive: 1.29"},
      {"sequence": "GCUCCAAUGUGGUUGAGCATT against Olfr531", "z-score": "inactive: -1.04"},
      {"sequence": "CGAUGUAAAGAGCUGGUAGTT against Zdhhc13", "z-score": "inactive: 0.802"},
      {"sequence": "GCUGUUGUUUACUUGGCAATT against Vmn1r197", "z-score": "inactive: -0.0655"},
      {"sequence": "GGGACAUUUUCUUUCUAUUTT against Diaph3", "z-score": "inactive: 1.75"},
      {"sequence": "GGAUGUGGUCUCUAUACCGTT against 1600012H06Rik", "z-score": "inactive: -1.55"},
      {"sequence": "GGAUUCGGGAAGGUGAGAUTT against Cep250", "z-score": "inactive: -0.712"},
      {"sequence": "GCUCAAGGCGACCUGUAUGTT against Map3k1", "z-score": "inactive: -1.05"},
      {"sequence": "CCAAAAAGUUCAGUGUAAUTT against Rad9b", "z-score": "inactive: -1.09"},
      {"sequence": "GUGUGGUACUCAACCCACUTT against Ffar1", "z-score": "inactive: 1.01"},
      {"sequence": "GGAGAUGGGCAAAGAGAUCTT against Cdk2ap2", "z-score": "inactive: 0.111"},
      {"sequence": "CCAGGUCGAACAUUUAAACTT against Ifit3", "z-score": "inactive: 1.71"},
      {"sequence": "GCUAGUCAUUUACAGAUCATT against Spesp1", "z-score": "inactive: -0.42"},
      {"sequence": "GGACUACGGCAAAGAUGAGTT against Mrc2", "z-score": "inactive: -1.56"},
      {"sequence": "GUUUACACUUUCAGGAAUATT against Olfr1218", "z-score": "inactive: 1.16"},
      {"sequence": "GGCCAAAGAGUUCAGCCUATT against Prrx2", "z-score": "inactive: -0.29"},
      {"sequence": "GGAAGUGGUGAUGUAAAUATT against Tpp2", "z-score": "inactive: -0.994"}
    ]}
  ]
}
